Primary screen of a compound library

The values are deposited in ChEMBL (CHEMBL3988442, “University of Dundee, Small-Polar-MMV Screening Library” (2021)).

Values are the deposited “Percent Effect”, in %.
The record does not define 0% and 100%; most values in the screen are far below 50% and negative numbers occur (in some assays of this library far below -100).
Compounds were drawn at random from those tested, without regard to their results.
Two or more numbers in one place are separate tests of the same structure; such repeats can differ widely.

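Viability assay of Plasmodium falciparum sporozoites; the read-out is not stated. The concentration is filed as 10 mM, unlikely as a test dose, so the dose is not known. The record gives no direction; compounds that gave an IC50 in retests scored well above the rest, so higher reads as lower viability. Strong results were mostly tested again. Of about 34,000 compounds tested this way, about 280 (0.84%) reached 50% or more in at least one test.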

{"compound": "O=C(c1ccc2c(c1)COC2)N1CCN(CC2CC2)CC1", "effect": -4.852}
{"compound": "[H][C@@]12CCN(CCN3CCCC3)C[C@]1(C(=O)NCc1ccco1)CCO2", "effect": -13.1}
{"compound": "Cc1ccc(CN2CCn3cc(CN(C)Cc4ccco4)nc3C2)o1.O=C(O)C(F)(F)F.O=C(O)C(F)(F)F", "effect": -18.21}
{"compound": "CN(CC1CCCCC1)C(=O)c1cn(C)nc1-c1cccnc1", "effect": 7.23}
{"compound": "CCNC(=O)N1CCCCC1CCNS(C)(=O)=O", "stereo": "configuration not stated", "effect": -28.12}
{"compound": "O=C(C1CCOCC1)N1CCC2(CCNCC2)C1", "effect": -10.42}
{"compound": "CCOCCCNC(=O)C1(C)CCC(=O)N1c1ccccc1OC", "stereo": "configuration not stated", "effect": -1.343}
{"compound": "CC(=O)N1CCC2(CCN(CC3CCOC3)C2)CC1", "stereo": "configuration not stated", "effect": 6.564}
{"compound": "Cc1cc(C(=O)N[C@@H]2CCNC[C@H]2O)ccc1Cl", "effect": 2}
{"compound": "CCCC(NC(=O)c1cncc(C)c1)c1nnn[nH]1", "stereo": "configuration not stated", "effect": -7.598}
{"compound": "CCc1nc(C2CCCN2C(=O)c2csc(NC(C)=O)n2)no1", "stereo": "configuration not stated", "effect": 16.65}
{"compound": "CN(Cc1nccn1C)C1CCCN(CCCc2ccccc2)C1", "stereo": "configuration not stated", "effect": 4.298}
{"compound": "CCOCC1c2c(ncn2C)CCN1C(=O)c1cscn1", "stereo": "configuration not stated", "effect": 10.46}
{"compound": "CCC1c2ccsc2CCN1C(=O)NCc1ccccn1", "stereo": "configuration not stated", "effect": 15.3}
{"compound": "O=C(O)C(F)(F)F.O=C(O)C(F)(F)F.[H][C@]12C[C@H](CN(C)C(C)C)O[C@@]1([H])CN(Cc1ccco1)C2", "effect": 5.867}
{"compound": "CCn1ncc(CN2CCc3c(nc(-c4cccnc4)[nH]c3=O)C2)c1C", "effect": -19.49}
{"compound": "CSc1nccc(N2CCC(NCc3ccc4c(c3)OCO4)CC2)n1", "effect": 4.585}
{"compound": "CCN1C(=O)CCCC12CCCN(C(=O)c1ccoc1C)C2", "stereo": "configuration not stated", "effect": 3.765}
{"compound": "CCS(=O)(=O)c1ccccc1C(=O)NCc1ccnc(N(C)C)c1", "effect": 2.617}
{"compound": "CC(CCc1ccccc1)N1CCC(C(=O)Nc2cnccn2)CC1", "stereo": "configuration not stated", "effect": -2.997}
{"compound": "CCc1nnc(NC(=O)CCN2CC=C(c3cnn(C)c3)CC2)s1", "effect": -5.623}
{"compound": "CCS(=O)(=O)N1CCC(c2nc(C)c(C)c(N3CCCC3)n2)CC1", "effect": 4.82}
{"compound": "Cn1nnnc1SCc1cc2c(cc1Cl)OCO2", "effect": -9.799}
{"compound": "Cc1cc(C)n(CC2CCCN2Cc2cscn2)n1", "stereo": "configuration not stated", "effect": -2.676}
{"compound": "COCCN(C(=O)c1cnccn1)c1nc2c(s1)CCc1c-2cnn1C", "effect": -10.14}
{"compound": "CCCc1nc(C(C)(C)NC(=O)C2CC(=O)N(C3CCCC3)C2)no1", "stereo": "configuration not stated", "effect": 13.67}
{"compound": "COc1cccc(-n2c(SCC(=O)O)nnc2-c2cn[nH]c2)c1", "effect": -12.19}
{"compound": "Cc1cc(CN2CCCC2c2noc(C)n2)no1", "stereo": "configuration not stated", "effect": -22.55}
{"compound": "CC(C)c1nn(C)c(N(C)C)c1CNCc1cccnc1N(C)C", "effect": 7.835}
{"compound": "Cc1ncc(CNC(=O)CCc2cccc(F)c2)c(C2CCCN2C)n1", "stereo": "configuration not stated", "effect": -14.1}
{"compound": "C=Cc1ccc(C(=O)N2CCCC(Nc3ccc(OC)cc3)C2)cc1", "stereo": "configuration not stated", "effect": -10.24}
{"compound": "O=C1CCSCC(C(=O)N2CCN(C3CCCCC3)CC2)N1", "stereo": "configuration not stated", "effect": -12.63}
{"compound": "CCC(C)C(=O)Nc1ccc2oc(=O)n(CCN(C)C)c2c1", "stereo": "configuration not stated", "effect": -15.93}
{"compound": "CCOCCNC(=O)Nc1ccc(OCc2noc(C3CC3)n2)cc1", "effect": 5.598}
{"compound": "COC(=O)c1ccc(N2CCN(C(=O)c3cnn(C)c3)C(C)C2)cc1", "stereo": "configuration not stated", "effect": 3.701}
{"compound": "CCc1nc(CN2CCCN(c3nn4cc(C)nc4s3)CC2)no1", "effect": 7.537}
{"compound": "O=C(Nc1ccc(-c2cnc(NCCO)nc2)cc1)[C@@H]1CCCCN1", "effect": -2.625}
{"compound": "CC(=O)N1CCc2nc(C3CCN(c4ncccn4)C3)ncc2C1", "stereo": "configuration not stated", "effect": 11.58}
{"compound": "Cc1ccc(N2CCCC(N(C)c3nn4cc(C)nc4s3)C2)nn1", "stereo": "configuration not stated", "effect": -11.33}
{"compound": "Cc1nc(C2CN(Cc3scnc3C)CCO2)cc(N(C)C)n1", "stereo": "configuration not stated", "effect": 0.09349}
{"compound": "Cc1cc(C)n(CC2CCCN2C(=O)c2cccc3[nH]ncc23)n1", "stereo": "configuration not stated", "effect": -5.263}
{"compound": "Cc1ccc(-c2ccc(=O)n(CC(=O)Nc3nccs3)n2)cc1", "effect": 4.924}
{"compound": "Cc1n[nH]c(C2CN(C(=O)c3cnc[nH]3)CCO2)n1", "stereo": "configuration not stated", "effect": "-12.72 & -15.47 & -16.67"}
{"compound": "Cn1c(-c2cc3n(n2)CCCN(CC(=O)O)C3)nc2ccccc21", "effect": "91.97 & 88.48"}
{"compound": "Cl.Cl.O=C(CN1CCN(CC(O)C2CC2)CC1)NCc1ccccc1Cl", "stereo": "configuration not stated", "effect": 6.356}
{"compound": "CCC(=O)N1CCC(c2nnc(Cn3cccn3)n2C2CC2)CC1", "effect": -15.9}
{"compound": "CC(=O)Nc1ncc(S(=O)(=O)Nc2ccc(C)cc2)s1", "effect": "-23.3 & -22.01"}
{"compound": "CN1C(=O)CC(c2cnn(C)c2)C12CCN(C(=O)c1ccncc1)CC2.O=C(O)C(F)(F)F", "stereo": "configuration not stated", "effect": -1.784}
{"compound": "Cc1cnn(CC2CCCN2Cc2cc(=O)n3ccccc3n2)c1", "stereo": "configuration not stated", "effect": 1.384}
{"compound": "Cc1cnn(CC2CCCCN2C(=O)c2ccc3c(c2)COC3)c1", "stereo": "configuration not stated", "effect": -1.871}
{"compound": "CCC(C)(C)NC(=O)c1nnn(-c2cccc3c2CCN(C)C3)c1C", "effect": -10.78}
{"compound": "COc1ccc(OC)c(-n2cnnc2CN)c1", "effect": 1.302}
{"compound": "NC(=O)C1(CCCc2ccccn2)CCCN(Cc2ccncc2)C1", "stereo": "configuration not stated", "effect": 11.59}
{"compound": "CCCC(Nc1c(C#N)c(=O)n(C)c(=O)n1C)c1ccc(F)cc1F", "stereo": "configuration not stated", "effect": 0.08224}
{"compound": "O=C(c1cc(=O)n(-c2ccccc2)[nH]1)N1CCOC(C(F)(F)F)C1", "stereo": "configuration not stated", "effect": -22.15}
{"compound": "CCC(C)C(=O)NCCCn1nc(C)cc1C", "stereo": "configuration not stated", "effect": -12.09}
{"compound": "CC(C)NC(=O)CS(=O)(=O)Cc1cc(Cl)c2c(c1)OCCO2", "effect": 9.293}
{"compound": "N#Cc1ccccc1OCCN1CCn2c(nnc2C2CC2)C1", "effect": "-14.61 & -20.34 & -12.35"}
{"compound": "O=C(NCCO)Nc1cccc(Cl)c1SC(F)F", "effect": 3.807}
{"compound": "Cc1cc(F)ccc1CN1CCCC2(C1)OCCO2", "effect": -10.82}
{"compound": "CCN(CC)c1nc(O)cc(C(C)n2ncc3ccccc3c2=O)n1", "stereo": "configuration not stated", "effect": 7.187}
{"compound": "CCCc1cc(NC2CCc3ncnn3C2)n2ncnc2n1", "stereo": "configuration not stated", "effect": -2.007}

7 of the entries, repeated:

N#Cc1ccccc1OCCN1CCn2c(nnc2C2CC2)C1 gave -14.61% & -20.34% & -12.35%.
CCOCC1c2c(ncn2C)CCN1C(=O)c1cscn1 (configuration not stated) gave 10.46%.
CN1C(=O)CC(c2cnn(C)c2)C12CCN(C(=O)c1ccncc1)CC2.O=C(O)C(F)(F)F (configuration not stated) gave -1.784%.
Cc1cc(C)n(CC2CCCN2Cc2cscn2)n1 (configuration not stated) gave -2.676%.
CCS(=O)(=O)c1ccccc1C(=O)NCc1ccnc(N(C)C)c1 gave 2.617%.
Cc1ccc(CN2CCn3cc(CN(C)Cc4ccco4)nc3C2)o1.O=C(O)C(F)(F)F.O=C(O)C(F)(F)F gave -18.21%.
CCS(=O)(=O)N1CCC(c2nc(C)c(C)c(N3CCCC3)n2)CC1 gave 4.82%.